Data from the supplement of paper PMC12889115.
Some of the results follow. Values are raw readings; no control value is given beside them.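 First-pass screen: polymyxin B was added at a level that permeabilizes the Salmonella outer membrane while sparing the inner membrane. DMSO wells, with and without polymyxin B, defined maximum growth. Because plates differed from one another, each plate's data were ranked separately and the compounds with the lowest OD600 were carried forward as hits.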

Tested on: Salmonella enterica serovar Typhimurium SL1344
Assay: bacterial growth OD600 after 18 h with compound and polymyxin B; higher = more bacterial growth (less inhibition)
Details: 50 µM, Mueller-Hinton broth

Compound | bacterial growth OD600 (polymyxin B 1 µg/mL) | bacterial growth OD600 (polymyxin B 0.75 µg/mL)
CN(Cc1cccc(-n2cccn2)c1)C(=O)C1CCC(=O)N(C2CC2)C1 (configuration not stated) | 0.836 | 
O=C(NCC1CCCN(Cc2c[nH]nc2-c2ccccc2)C1)c1cccs1 (configuration not stated) | 0.879 | 
COc1ccc(-n2cc(CNCC(C)O)c(-c3ccccc3Cl)n2)cc1 (configuration not stated) | 1.02 | 
Cc1cccc(C(=O)N2CCC(C3CCN(Cc4cccnc4)CC3)C2)n1 (configuration not stated) |  | 0.848
COc1cc(-c2n[nH]cc2CN2CCN(C3CCCCC3)CC2)cc(OC)c1OC | 1.16 | 
O[C@@H]1CN(CCCC(F)(F)F)CC[C@H]1N1CCN(c2ccccc2F)CC1 | 1.08 | 
OC1CCN([C@@H]2CCN(Cc3ccc4c(c3)Cc3ccccc3-4)C[C@H]2O)CC1 | 0.91 | 
COc1cccc(CCc2nnc(CCC(=O)N3CCCCC3C)o2)c1 (configuration not stated) | 0.876 | 
COCCNC(=O)c1ccc(OC)cc1OC1CCN(Cc2ccco2)CC1 | 0.815 | 
COc1ccc(C(=O)NCc2ccccc2C)cc1OC1CCN(C(C)C)CC1 |  | 0.852
CSCC(=O)N1CCCCC1C(=O)Nc1ccc(-n2nc(C)cc2C)cc1 (configuration not stated) | 0.908 | 
Cc1ccc(C)c(-c2n[nH]cc2CN2C[C@H]3OC(=O)N(C4CCCC4)[C@H]3C2)c1 |  | 0.719
CCN(Cc1nc(C)c[nH]1)CC1CCN(CCc2ccccc2C)CC1 | 0.718 | 
Cc1ccccc1C(CC(=O)NCC(N)=O)c1ccccc1 (configuration not stated) |  | 0.8
CCCn1cc(C(=O)N2CCC3(CCCN(CC4CC4)C3)C2)c(C)n1 (configuration not stated) | 0.965 | 
COC(=O)CCC(=O)NC1CCCc2c1cnn2-c1cccc(C)c1C (configuration not stated) | 0.922 | 

Gathered by group: the entries above with sulfur
Compound | bacterial growth OD600 (polymyxin B 1 µg/mL) | bacterial growth OD600 (polymyxin B 0.75 µg/mL)
O=C(NCC1CCCN(Cc2c[nH]nc2-c2ccccc2)C1)c1cccs1 (configuration not stated) | 0.879 | 
CSCC(=O)N1CCCCC1C(=O)Nc1ccc(-n2nc(C)cc2C)cc1 (configuration not stated) | 0.908 | 

(cont.)

Compound | bacterial growth OD600 (polymyxin B 1 µg/mL) | bacterial growth OD600 (polymyxin B 0.75 µg/mL)
CC(C)CNC(=O)C1CCCN(C2CCN(Cc3ccccc3)CC2)C1 (configuration not stated) |  | 0.874
CC(C)N(C)c1ccc(C(=O)N2CCC(Cn3cccn3)CC2)cn1 |  | 0.938
COCC1CCN(C(=O)c2coc(COc3cccc(F)c3)n2)C1 (configuration not stated) | 0.769 | 
O=C(Nc1ccc(-c2nc3ccccc3o2)cc1)C1CCN(Cc2ccc(O)cc2)CC1 | 1.03 | 
COc1cc(N2C[C@H]3OC(=O)N(CCc4cccc(Cl)c4)[C@H]3C2)ncn1 |  | 0.801
COCCN(C)C(=O)c1coc(COc2cccc(F)c2F)n1 | 0.984 | 
CN(C(=O)CCn1cncn1)C1CCCN(CCc2ccccc2)C1 (configuration not stated) | 0.88 | 
COc1ccc(C(=O)NC2CC2)c(OC2CCN(Cc3ccc(C)cc3)CC2)c1 | 1.04 | 
COC(=O)c1ccccc1C(=O)N1CCCC(Nc2ccc(F)cc2)C1 (configuration not stated) | 0.999 | 
COc1ccccc1CCN1CCCC(CN(C)C(=O)C(=O)CC(C)C)C1 (configuration not stated) | 0.846 | 
CCOCCCNC(=O)C1CCCN1c1nc(C)c2ccc(S(C)(=O)=O)cc2n1 (configuration not stated) |  | 0.809
CCOc1ccc2nc(N3CCCC(C(=O)N4CCN(Cc5nccn5C)CC4)C3)nc(C)c2c1 (configuration not stated) |  | 0.443
O=C(NCc1cccnc1-n1ccnc1)c1ncoc1C1CC1 |  | 0.845
COc1ccccc1Oc1ncccc1CNC(=O)c1ccc(C)s1 | 0.917 | 
COCCNC(=O)c1ccc(OC)cc1OC1CCN(C/C(C)=C/c2ccco2)CC1 | 0.992 | 
CCc1ccc(CN2CCC(N3CCC(C(=O)NCCc4ccccc4)CC3)CC2)o1 |  | 0.741
